Experimental data: patent US20200199212A1
Results are given in words; binding and its absence hold for the method and conditions named. In cells and extracts the contact can be indirect. Some binding calls cover weakened binding; strength is not graded here. Where a sequence is shown, tags or fusion partners need not be part of it.

How the values were obtained:
[1] = target: T1, ANGPTL3 fusion protein after purification (SEQ ID NO:19) (human) (UniProt Q9Y5C1); assay: co-purification (Ni-NTA by the His tag of the HSA-ANGPTL8 fusion, Superdex 200, PreScission cleavage, second Superdex 200), then SDS-PAGE on a 4-20% TG TGX gel stained with Coomassie
T1 sequence: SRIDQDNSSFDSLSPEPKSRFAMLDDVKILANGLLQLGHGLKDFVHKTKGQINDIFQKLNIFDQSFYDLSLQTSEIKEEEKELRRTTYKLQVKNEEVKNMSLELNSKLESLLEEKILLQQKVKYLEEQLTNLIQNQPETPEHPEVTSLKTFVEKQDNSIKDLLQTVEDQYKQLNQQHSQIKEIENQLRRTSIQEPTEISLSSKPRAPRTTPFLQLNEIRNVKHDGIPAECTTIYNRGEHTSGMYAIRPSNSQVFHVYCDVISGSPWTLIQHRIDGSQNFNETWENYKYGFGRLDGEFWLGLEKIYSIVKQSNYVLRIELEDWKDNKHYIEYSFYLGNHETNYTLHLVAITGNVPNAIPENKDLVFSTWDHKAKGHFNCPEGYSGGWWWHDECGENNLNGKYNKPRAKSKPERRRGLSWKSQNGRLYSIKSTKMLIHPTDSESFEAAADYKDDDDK

[2] = target: T1, ANGPTL3 fusion protein after purification (SEQ ID NO:19) (human); assay: co-expression, co-purification (Ni-NTA, size exclusion), SDS-PAGE

- binding [1]: binds
- binding [2]: binds
B1: ANGPTL8 fusion protein after purification and PreScission cleavage (SEQ ID NO:20) (ligand)
chain: APMGGPELAQHEELTLLFHGTLQLGQALNGVYRTTEGRLTKARNSLGLYGRTIELLGQEVSRGRDAAQELRASLLETQMEEDILQLQAEATAEVLGEVAQAQKVLRDSVQRLEVQLRSAWLGPAYREFEVLKAHADKQSHILWALTGHVQRQRREMVAQQHRLRQIQERLHTAALPA
